In this assay the target is T1, hexokinase domain-containing protein 1 (HKDC1) (human (endogenous in SW620 and DLD1)) (UniProt Q2TB90).
T1 sequence: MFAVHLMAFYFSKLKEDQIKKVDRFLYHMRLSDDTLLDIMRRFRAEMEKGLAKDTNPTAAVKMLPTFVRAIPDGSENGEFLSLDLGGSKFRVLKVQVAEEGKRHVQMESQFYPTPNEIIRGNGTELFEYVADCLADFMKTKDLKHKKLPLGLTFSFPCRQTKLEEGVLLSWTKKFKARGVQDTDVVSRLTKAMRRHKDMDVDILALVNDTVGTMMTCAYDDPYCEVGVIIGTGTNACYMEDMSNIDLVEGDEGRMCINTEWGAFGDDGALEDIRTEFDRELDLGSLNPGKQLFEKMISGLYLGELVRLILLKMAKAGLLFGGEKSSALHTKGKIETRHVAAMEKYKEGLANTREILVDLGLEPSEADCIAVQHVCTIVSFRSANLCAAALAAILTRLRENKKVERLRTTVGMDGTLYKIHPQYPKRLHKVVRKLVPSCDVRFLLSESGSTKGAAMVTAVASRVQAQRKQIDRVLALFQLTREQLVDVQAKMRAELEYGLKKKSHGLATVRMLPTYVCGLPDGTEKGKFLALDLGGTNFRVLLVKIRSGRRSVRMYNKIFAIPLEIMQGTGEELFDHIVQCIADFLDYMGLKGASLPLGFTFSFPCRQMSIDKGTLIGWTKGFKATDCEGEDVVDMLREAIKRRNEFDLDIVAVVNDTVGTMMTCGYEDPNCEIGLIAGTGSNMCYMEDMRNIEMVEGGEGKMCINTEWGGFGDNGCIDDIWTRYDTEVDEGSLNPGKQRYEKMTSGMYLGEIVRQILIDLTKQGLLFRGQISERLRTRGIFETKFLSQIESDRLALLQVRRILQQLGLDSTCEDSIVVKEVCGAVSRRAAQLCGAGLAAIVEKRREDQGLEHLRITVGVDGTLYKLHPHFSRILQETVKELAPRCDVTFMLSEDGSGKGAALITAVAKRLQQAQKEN
Description: co-IP; SW620 and DLD1 lysates (RIPA with PMSF) incubated with anti-HKDC1 or anti-RCOR1 antibodies, then Protein A/G magnetic beads; SDS-PAGE and Western blot.

Amino acid sequences for entries named in this document (tags omitted).
UniProt Q9UKL0: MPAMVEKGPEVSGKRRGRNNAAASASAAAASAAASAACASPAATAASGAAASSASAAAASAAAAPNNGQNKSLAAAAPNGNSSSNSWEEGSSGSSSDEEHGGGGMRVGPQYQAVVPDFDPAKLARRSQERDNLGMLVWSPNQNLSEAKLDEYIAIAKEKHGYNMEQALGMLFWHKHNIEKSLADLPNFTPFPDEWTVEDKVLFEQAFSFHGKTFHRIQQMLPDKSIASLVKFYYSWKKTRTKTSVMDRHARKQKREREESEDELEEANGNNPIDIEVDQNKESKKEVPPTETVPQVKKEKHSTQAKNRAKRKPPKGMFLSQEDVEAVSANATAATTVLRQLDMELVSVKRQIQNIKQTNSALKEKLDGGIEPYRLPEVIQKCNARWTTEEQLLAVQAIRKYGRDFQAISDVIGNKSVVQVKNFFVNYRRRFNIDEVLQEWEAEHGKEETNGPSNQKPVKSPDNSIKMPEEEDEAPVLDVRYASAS

Results are given in words; binding and its absence hold for the method and conditions named. In cells and extracts the contact can be indirect. Some entries that bind do so weakly or less than the wild type.

Here are results for 1 substance from publication PMC12137164.

With “REST Corepressor 1 (RCOR1) (from UniProt Q9UKL0 1-485)”, the binding result is recorded as “binds”.
